Source: US20020065213A1, “METHODS AND COMPOSITIONS FOR NONVIRAL GENE DELIVERY” (priority 1998, published 2002)
For some of these results: At least one structure is not confirmed: it was looked up by name or label, or the drawing left a doubt. Some results were stated once for a whole list of compounds, not compound by compound.

Columns and labels:
ICR mice = test: Host pretreatment before i.v. CLDC or naked DNA, tissue luciferase activity; type: in vivo, mouse; conditions: preinjection before iv CLDC (p4241), 24 hours after CLDC
Method: Plasmid: p4241 (HCMV-luciferase, see Liu et al., 1997).
Liposomes: DOTIM:chol MLV in 1:1 molar ratio.
DNA:Liposome Ratio: liposome:plasmid 1:16 (μg plasmid DNA to nanomoles total lipid).
Pretreatment: Individual mice in groups of 5 received either 200 μl of D5W only by IV injection, 1 mg dexamethasone (Sigma) in 200 μl D5W by IV tail vein injection, 250 μg Ticlopidine (Sigma) dissolved in 200 μl D5W by IV injection, 175 μg ammonium chloride (Fisher) dissolved in 1000 μl D5W by IP injection, respectively, four hours before IV injection of CLDC. For 4-APP pretreatment, a group of 5 mice were IP injected with 1.5 mg of 4-Aminopyrazolo(3,4d)-pyrimidine (Sigma, A2630) dissolved in 1 ml 0.01 M sodium phosphate, pH 2.5, daily for three days before receiving an IV injection of p4241-containing CLDC as described above. Another group of 5 mice received 1 ml 0.01 M Sodium Phosphate, pH 2.5 solution by IP injection daily for three days before receiving an injection of IV CLDC as above, thus serving as control for 4-APP pretreatment group.
DNA dose: 40 μg plasmid DNA in 200 μl of 5% dextrose in water (D5@) was injected by tail vein per mouse. […]
Quantitation of luciferase: Twenty-four hours after injection of CLDC, mice were sacrificed in a CO2 chamber, and lungs, heart, spleen and liver were collected and assayed for luciferase activity. […]

murine B 16 cells = test: Inhibition of in vitro CLDC-mediated transfection (luciferase) by polysaccharide pretreatment

Row | Molecule | luciferase activity versus buffer-pretreated mice (ICR mice) | concentration sufficient to block transfection (murine B 16 cells) [nM]
1 | C[C@@H]1C[C@H]2[C@@H]3CCC4=CC(=O)C=C[C@]4(C)[C@@]3(F)[C@@H](O)C[C@]2(C)[C@@]1(O)C(=O)CO [dexamethasone] | significantly increased luciferase activity | –
2 | dextran sulfate | – | ≤ 100
3 | fucoidan | – | ≤ 100
4 | heparin | – | ≤ 100
